# PubChem BioAssay AID1259254, NCATS | 2017
# Purpose: 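Gene knock-downs that lead to re-replication, shown by excess G2 DNA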 (primary screen)
# System: human HCT116 colorectal cancer cells
# Reagent: single siRNA against human genes
# Timing: 3 days
# Measurement: 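Nuclei stained with Hoechst and imaged; cell-cycle phase assigned by DNA content; G2 share scaled per plate, non-targeting siRNA 0%, GMNN siRNA 100%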
# Reading the numbers: G2 robust z-score and G2 cells, % of GMNN control: higher = more G2 cells, more excess DNA replication; raw share of cells in G2: higher = larger share of cells with G2 DNA content
# Hit rule: 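Active siRNAs have a G2 robust z of 5 or more median absolute deviations over the median, which in these data means about 38% or higher of GMNN control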
# Here is a random part of about 59,000 reagents tested. About 1,550 of all reagents (2.6%) were called active. 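G2 share is only a proxy for re-replication; each gene was hit by three separate siRNAs, and active genes were retested.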 The raw values are shown without normalisation. The numbers tell different reagents against one gene apart. Reagent sequences are not shown. The record does not give: the amount of reagent.
gene symbol,reagent,G2 robust z-score,"G2 cells, % of GMNN control",raw share of cells in G2 (%),call
TM9SF3,1,0.313,5.17,8.7,inactive
TM9SF3,2,-0.791,-2.6,3.25,inactive
TM9SF3,3,-0.975,-3.89,3.04,inactive
USF2,1,-0.238,1.29,3.97,inactive
USF2,2,3.05,24.4,16.3,inactive
USF2,3,-0.0436,2.66,4.07,inactive
LHX6,1,-0.974,-3.88,4.4,inactive
LHX6,2,3.93,30.7,14.4,inactive
LHX6,3,-0.0938,2.31,4.74,inactive
PENK,1,0.247,4.7,6.97,inactive
PENK,2,-0.178,1.71,4.9,inactive
PENK,3,-0.438,-0.114,3.31,inactive
SPR,1,0.305,5.12,7.4,inactive
SPR,2,-0.0751,2.44,5.38,inactive
SPR,3,0.874,9.11,6.97,inactive
OR10J1,1,-0.52,-0.693,3.06,inactive
OR10J1,2,0.994,9.96,8.16,inactive
OR10J1,3,2.12,17.9,11.7,inactive
KCTD11,1,1.8,15.6,8.46,inactive
KCTD11,2,0.672,7.7,5.84,inactive
KCTD11,3,1.2,11.4,7.54,inactive
STUM,1,0.304,5.11,6.82,inactive
STUM,2,2.88,23.2,11.7,inactive
STUM,3,4.48,34.5,18.4,inactive
MGAT5B,1,-0.874,-3.18,4.44,inactive
MGAT5B,2,-0.195,1.6,5.37,inactive
MGAT5B,3,-0.94,-3.65,3.37,inactive
RHOQ,1,-0.435,-0.0952,6.33,inactive
RHOQ,2,0.134,3.91,5.2,inactive
RHOQ,3,-1.24,-5.78,2.22,inactive
SMIM7,1,-0.378,0.31,4.72,inactive
SMIM7,2,-0.286,0.955,5.04,inactive
SMIM7,3,0.882,9.18,5.12,inactive
GTF3C4,1,-1.01,-4.15,3.46,inactive
GTF3C4,2,5.61,42.5,21.7,active
GTF3C4,3,-0.0132,2.87,4.45,inactive

In a second layout: 5 of the entries above
MGAT5B #1 → G2 robust z-score: -0.874; G2 cells, % of GMNN control: -3.18; raw share of cells in G2 (%): 4.44; call: inactive
MGAT5B #2 → G2 robust z-score: -0.195; G2 cells, % of GMNN control: 1.6; raw share of cells in G2 (%): 5.37; call: inactive
MGAT5B #3 → G2 robust z-score: -0.94; G2 cells, % of GMNN control: -3.65; raw share of cells in G2 (%): 3.37; call: inactive
RHOQ #1 → G2 robust z-score: -0.435; G2 cells, % of GMNN control: -0.0952; raw share of cells in G2 (%): 6.33; call: inactive
RHOQ #2 → G2 robust z-score: 0.134; G2 cells, % of GMNN control: 3.91; raw share of cells in G2 (%): 5.2; call: inactive

More reagents follow.
gene symbol,reagent,G2 robust z-score,"G2 cells, % of GMNN control",raw share of cells in G2 (%),call
HASPIN,1,1.41,12.9,9.6,inactive
HASPIN,2,-0.522,-0.706,4.93,inactive
HASPIN,3,-0.0439,2.66,4.53,inactive
ZNF248,1,2.57,21,10.2,inactive
ZNF248,2,1.19,11.4,11,inactive
ZNF248,3,0.0296,3.18,4.63,inactive
MACF1,1,0.102,3.69,4.75,inactive
MACF1,2,0.33,5.29,8.34,inactive
MACF1,3,0.947,9.63,7.37,inactive
MACF1,4,-0.587,-1.17,3.19,inactive
MACF1,5,0.621,7.33,5.91,inactive
MACF1,6,1.08,10.5,6.22,inactive
ARHGEF6,1,-0.411,0.0724,3.22,inactive
ARHGEF6,2,1.2,11.4,9.52,inactive
ARHGEF6,3,-0.746,-2.28,3.82,inactive
LAMP1,1,-0.626,-1.44,4.36,inactive
LAMP1,2,1.3,12.1,8.99,inactive
LAMP1,3,-0.572,-1.06,2.97,inactive
KRT3,1,6.5,48.7,22.8,active
KRT3,2,0.333,5.31,7.7,inactive
KRT3,3,0.589,7.11,6.81,inactive
SUSD1,1,2.79,22.6,14.4,inactive
SUSD1,2,5.18,39.4,22.3,active
SUSD1,3,-0.398,0.168,2.74,inactive
ERAP1,1,-0.582,-1.12,5.17,inactive
ERAP1,2,-1.31,-6.28,2.69,inactive
ERAP1,3,0.898,9.29,7.37,inactive
RILP,1,-0.458,-0.256,5.32,inactive
RILP,2,-0.418,0.0235,4.2,inactive
RILP,3,-0.719,-2.09,4.01,inactive
SLC5A12,1,-0.107,2.22,5.63,inactive
SLC5A12,2,-0.971,-3.86,3.29,inactive
SLC5A12,3,0.86,9.02,10.3,inactive
